Results published in patent publication US20250346678A1.
These are yes or no findings as the source states them, for the method shown. Some entries that bind do so weakly or less than the wild type.

Protein sequences, listed by entry. Tags and fused reporters are not part of them. Lines headed by an entry give the natural chain unless they say otherwise; changes in a name come on top.
UniProt Q9NZQ7: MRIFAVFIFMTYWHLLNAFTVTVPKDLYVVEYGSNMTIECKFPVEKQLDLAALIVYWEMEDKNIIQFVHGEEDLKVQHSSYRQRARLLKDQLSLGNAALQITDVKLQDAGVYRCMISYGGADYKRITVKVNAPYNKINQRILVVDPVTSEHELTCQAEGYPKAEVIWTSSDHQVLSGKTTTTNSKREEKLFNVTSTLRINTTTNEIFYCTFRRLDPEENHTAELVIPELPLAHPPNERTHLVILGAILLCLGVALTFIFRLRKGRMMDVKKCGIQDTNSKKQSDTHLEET

Target: human PD-L1 IgG1 Fc chimera (human) (UniProt Q9NZQ7)
Assay: phage display selection and direct ELISA screening

- binding: binds
B1: OM-PDL1-32 (Fab, V domains shown)
VH: QVQLVQSGAKVKKPGSSVKVSCKASGGTFSSYAISWVRQAPGQGLEWMGRIIPILGIANYAQKFQGRVTITADKSTSTAYMELSSLRSEDTAVYYCARVVPGYSYGPFDYWGQGTTVTVSS
VL: QSALTQPASVSGSPGQSITISCTGTSNDVGSYNSVSWYQQHPGKAPKLVIYEVANRPSGVPDRFSGSKSGNTASLTISGLQAEDEADYYCSSYTSSSTLVFGGGTKLTVLG
